Among the data in publication doi:10.1101/2020.05.29.123034 are binding values, retold here.

Chains of the proteins cited; added tags and fusions are not shown. Residues count along the entry.
UniProt P31016, residues 403-724: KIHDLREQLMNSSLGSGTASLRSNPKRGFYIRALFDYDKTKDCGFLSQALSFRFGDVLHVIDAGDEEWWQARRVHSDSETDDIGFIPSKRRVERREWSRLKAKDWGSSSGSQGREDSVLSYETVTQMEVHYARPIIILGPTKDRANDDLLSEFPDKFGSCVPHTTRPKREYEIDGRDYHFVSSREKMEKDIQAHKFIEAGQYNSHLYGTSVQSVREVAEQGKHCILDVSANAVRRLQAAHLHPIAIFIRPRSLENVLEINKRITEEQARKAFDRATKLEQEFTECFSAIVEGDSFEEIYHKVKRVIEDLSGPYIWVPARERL
UniProt P34926: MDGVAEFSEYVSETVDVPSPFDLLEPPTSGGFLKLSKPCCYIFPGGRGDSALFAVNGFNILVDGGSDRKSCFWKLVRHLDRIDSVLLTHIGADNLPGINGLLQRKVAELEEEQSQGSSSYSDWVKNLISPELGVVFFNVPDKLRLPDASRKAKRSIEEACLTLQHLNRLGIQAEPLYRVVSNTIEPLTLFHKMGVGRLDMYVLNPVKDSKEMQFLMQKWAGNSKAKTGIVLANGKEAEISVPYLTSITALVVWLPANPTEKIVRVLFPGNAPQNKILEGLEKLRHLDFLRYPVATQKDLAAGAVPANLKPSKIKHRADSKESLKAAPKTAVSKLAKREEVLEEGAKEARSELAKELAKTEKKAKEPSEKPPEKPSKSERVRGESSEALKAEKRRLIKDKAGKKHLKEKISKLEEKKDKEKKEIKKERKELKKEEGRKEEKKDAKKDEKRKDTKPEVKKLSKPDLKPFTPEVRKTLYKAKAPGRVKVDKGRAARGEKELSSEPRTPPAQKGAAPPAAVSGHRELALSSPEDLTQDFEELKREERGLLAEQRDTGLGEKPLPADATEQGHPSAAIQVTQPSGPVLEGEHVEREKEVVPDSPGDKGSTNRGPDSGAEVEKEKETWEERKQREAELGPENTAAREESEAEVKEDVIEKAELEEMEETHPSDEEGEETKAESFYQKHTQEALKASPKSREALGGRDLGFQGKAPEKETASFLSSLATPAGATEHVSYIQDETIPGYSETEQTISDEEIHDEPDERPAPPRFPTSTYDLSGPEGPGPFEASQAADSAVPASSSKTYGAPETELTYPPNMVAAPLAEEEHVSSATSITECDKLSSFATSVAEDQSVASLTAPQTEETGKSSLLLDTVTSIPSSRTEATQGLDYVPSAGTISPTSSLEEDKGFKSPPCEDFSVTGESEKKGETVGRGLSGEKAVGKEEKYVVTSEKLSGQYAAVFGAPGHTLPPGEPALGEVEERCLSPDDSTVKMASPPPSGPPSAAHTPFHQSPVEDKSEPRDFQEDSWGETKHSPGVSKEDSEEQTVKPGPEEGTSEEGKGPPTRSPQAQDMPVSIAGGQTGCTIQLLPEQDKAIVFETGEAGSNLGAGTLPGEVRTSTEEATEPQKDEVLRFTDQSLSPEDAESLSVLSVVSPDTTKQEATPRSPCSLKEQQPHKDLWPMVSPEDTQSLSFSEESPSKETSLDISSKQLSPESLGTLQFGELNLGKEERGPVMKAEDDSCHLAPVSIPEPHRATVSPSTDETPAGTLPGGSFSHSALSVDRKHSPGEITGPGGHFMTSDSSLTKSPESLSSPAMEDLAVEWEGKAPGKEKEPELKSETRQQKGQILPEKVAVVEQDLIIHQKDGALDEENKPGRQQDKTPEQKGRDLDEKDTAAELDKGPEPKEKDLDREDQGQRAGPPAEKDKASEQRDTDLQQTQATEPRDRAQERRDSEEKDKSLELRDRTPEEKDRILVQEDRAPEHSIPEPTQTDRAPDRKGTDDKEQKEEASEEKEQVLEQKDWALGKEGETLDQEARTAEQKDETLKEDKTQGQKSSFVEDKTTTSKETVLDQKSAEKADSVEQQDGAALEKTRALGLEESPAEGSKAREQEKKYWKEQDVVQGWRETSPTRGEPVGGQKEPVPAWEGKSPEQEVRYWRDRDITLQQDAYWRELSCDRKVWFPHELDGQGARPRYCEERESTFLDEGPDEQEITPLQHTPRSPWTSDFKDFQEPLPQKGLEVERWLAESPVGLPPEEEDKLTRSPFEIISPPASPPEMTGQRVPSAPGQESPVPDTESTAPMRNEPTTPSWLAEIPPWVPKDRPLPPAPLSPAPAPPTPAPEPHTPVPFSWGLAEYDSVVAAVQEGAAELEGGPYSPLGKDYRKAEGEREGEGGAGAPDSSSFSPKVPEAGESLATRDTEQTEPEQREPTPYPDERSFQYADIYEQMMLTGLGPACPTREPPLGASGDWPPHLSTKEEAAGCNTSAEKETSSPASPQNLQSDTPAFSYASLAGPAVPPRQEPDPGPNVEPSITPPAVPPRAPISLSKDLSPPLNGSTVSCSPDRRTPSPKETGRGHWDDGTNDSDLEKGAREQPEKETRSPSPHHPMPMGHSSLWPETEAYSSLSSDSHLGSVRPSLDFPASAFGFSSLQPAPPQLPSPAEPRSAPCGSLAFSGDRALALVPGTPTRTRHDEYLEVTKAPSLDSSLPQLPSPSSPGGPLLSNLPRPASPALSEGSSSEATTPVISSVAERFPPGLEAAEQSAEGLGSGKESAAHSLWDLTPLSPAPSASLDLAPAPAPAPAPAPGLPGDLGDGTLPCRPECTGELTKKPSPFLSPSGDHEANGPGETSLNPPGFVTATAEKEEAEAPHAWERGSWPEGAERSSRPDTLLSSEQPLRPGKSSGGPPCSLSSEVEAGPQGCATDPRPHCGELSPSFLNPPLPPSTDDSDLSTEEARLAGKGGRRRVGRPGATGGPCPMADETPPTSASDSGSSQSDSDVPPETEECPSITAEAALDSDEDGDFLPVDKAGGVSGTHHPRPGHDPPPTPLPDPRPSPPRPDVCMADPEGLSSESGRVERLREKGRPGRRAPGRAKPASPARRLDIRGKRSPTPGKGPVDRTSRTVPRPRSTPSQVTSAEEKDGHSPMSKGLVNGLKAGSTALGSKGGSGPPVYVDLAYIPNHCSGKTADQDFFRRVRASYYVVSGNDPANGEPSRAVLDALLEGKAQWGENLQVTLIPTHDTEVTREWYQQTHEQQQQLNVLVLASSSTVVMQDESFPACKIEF
UniProt Q5I6B8: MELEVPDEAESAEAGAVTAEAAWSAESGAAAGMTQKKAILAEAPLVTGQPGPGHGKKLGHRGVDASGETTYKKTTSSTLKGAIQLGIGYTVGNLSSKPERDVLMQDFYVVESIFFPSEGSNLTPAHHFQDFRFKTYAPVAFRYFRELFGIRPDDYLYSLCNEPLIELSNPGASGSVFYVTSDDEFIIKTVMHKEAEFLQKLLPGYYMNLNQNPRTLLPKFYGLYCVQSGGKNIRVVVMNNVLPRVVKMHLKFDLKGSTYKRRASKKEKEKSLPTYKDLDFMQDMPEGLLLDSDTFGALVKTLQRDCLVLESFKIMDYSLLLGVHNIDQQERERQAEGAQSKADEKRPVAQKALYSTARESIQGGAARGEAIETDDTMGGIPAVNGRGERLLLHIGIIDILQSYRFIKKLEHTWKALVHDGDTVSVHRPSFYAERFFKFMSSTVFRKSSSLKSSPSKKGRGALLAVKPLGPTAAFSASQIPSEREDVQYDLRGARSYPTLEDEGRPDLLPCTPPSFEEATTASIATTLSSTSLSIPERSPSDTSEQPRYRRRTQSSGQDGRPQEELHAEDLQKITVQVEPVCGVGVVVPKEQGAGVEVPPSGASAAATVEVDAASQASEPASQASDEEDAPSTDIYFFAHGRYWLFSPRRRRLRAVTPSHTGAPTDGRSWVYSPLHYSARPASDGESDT
UniProt Q5XI81: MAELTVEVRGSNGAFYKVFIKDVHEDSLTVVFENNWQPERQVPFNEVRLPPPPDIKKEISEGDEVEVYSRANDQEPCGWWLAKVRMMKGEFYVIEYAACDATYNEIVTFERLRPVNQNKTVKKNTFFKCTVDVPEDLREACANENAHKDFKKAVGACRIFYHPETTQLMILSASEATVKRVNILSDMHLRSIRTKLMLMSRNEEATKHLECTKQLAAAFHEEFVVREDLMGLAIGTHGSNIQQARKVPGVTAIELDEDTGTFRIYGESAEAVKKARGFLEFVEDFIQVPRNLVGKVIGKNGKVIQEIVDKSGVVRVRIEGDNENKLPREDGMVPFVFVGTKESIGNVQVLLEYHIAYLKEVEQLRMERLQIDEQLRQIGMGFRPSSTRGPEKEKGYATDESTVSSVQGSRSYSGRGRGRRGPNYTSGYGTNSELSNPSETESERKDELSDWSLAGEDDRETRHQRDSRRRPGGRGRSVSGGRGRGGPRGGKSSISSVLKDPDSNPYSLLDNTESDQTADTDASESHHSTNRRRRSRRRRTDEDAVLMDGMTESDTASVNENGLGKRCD
UniProt P59215: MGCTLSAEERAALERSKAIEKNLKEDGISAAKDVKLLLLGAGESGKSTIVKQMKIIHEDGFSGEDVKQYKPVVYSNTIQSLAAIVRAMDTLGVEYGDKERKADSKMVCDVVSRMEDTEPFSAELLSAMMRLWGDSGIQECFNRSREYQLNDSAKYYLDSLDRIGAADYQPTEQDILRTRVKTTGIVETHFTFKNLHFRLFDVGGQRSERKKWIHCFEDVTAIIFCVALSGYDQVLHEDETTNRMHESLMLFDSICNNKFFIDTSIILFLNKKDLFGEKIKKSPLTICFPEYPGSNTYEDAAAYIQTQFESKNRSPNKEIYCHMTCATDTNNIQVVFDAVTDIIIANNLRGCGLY

Read-outs that look alike come from different tables or passages of the source. These are yes or no findings as the source states them, for the method shown. In cells and extracts the contact can be indirect. These calls come from enrichment with a bait or labelling near it, and not all partners need be listed. For some of these results: Sequences can lack the tags named with a protein.

Common to all, as to assay: affinity purification with mass spectrometry
One test has as its target GST-PSD-95-SH3GK (UniProt P31016).
Test [1] deals with T1, GST-MPP2-SH3GK (mouse) (UniProt Q9WV34).
T1 sequence: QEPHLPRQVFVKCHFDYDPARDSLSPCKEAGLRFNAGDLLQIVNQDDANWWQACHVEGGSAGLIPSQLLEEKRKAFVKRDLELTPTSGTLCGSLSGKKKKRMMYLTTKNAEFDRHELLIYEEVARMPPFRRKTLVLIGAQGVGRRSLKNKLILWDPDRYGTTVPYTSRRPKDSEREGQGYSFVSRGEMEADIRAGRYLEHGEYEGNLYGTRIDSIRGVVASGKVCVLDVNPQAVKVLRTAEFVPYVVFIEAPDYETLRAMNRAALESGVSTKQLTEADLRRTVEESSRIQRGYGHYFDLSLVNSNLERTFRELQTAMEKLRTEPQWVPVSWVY

The target in test [2] is T1, GST-MPP2-SH3GK (mouse). The source holds these as a separate data set.

For “endogenous Map1a from rat brain crude synaptosomes (from UniProt P34926 1-2774)”, the binding result with GST-PSD-95-SH3GK is given as “binds”.
For the molecule “endogenous calcium-dependent, calmodulin-stimulated protein phosphatase (Calcineurin) subunit Ppp3ca from rat brain crude synaptosomes (from UniProt P63329 1-521)”, the binding result with GST-MPP2-SH3GK (mouse) [1] is recorded as “binds”.
The same measure, in the same setting: the value for “endogenous Pip5k1c from rat brain crude synaptosomes (from UniProt Q5I6B8 1-688)” was “binds”.
On to “endogenous Fxr1 from rat brain crude synaptosomes (from UniProt Q5XI81 1-568)”, for which the binding result in the test with GST-PSD-95-SH3GK was “binds”.
For “endogenous Gnao1 from rat brain crude synaptosomes (from UniProt P59215 1-354)”, the binding entry with GST-MPP2-SH3GK (mouse) [1] is “binds”.

B1: endogenous Farp1 from rat brain crude synaptosomes (protein, UniProt F1LYQ8 1-1049)
chain: MGEIEQKPTPASRLGAPENSGISTLERGQKPPPTPSGKLMTVKIQMLDDTQEAFEVPQRAPGKVLFDAVCNHLNLVEGDYFGLEFPDHRKIVVWLDLLKPIVKQIRRPKHVLVKFVVKFFPPDHTQLQEELTRYLFALQVKQDLAQGRLTCNDTSAALLISHIVQSEIGDFDEALDREHLAKNKYVPQQDALEDKIVEFHHSHIGQTPAESDFQLLEVARRLEMYGIRLHPAKDREGTKINLAVANTGILVFQGFTKINAFNWAKVRKLSFKRKRFLIKLRPDVNSSYQDTLEFLMAGRDFCKSFWKICVEHHAFFRLFEEPKPKPKPVLFSRGSSFRFSGRTQKQVLDYVKEGGHKKVQFERKHSKIHSTRSLVSQPTAPNSEVPKQSPQSASLTFGEGTESPSAQSCQQAKETKVCTLEPGPRQSPALSKSPSGSKAADGTAAAAPPEEEDEEEGGKDGIRPSNPQPPQPSTGSLTGSPHLSELSINSQGGAAPANVTLSPNLSPDNKQASPLISPLLNDQACPRTDDEEEGRRKRFPTDKAYYIAKEVSTTERTYLKDLEVIASWFQSTVSKEDSMPEALKSLIFPNFEPLHKFHTNFLKEIEQRLALWEGRSNAHIRGDYQRIGDVMLKNIQGMKHLAAHLWKHSEALEALETSIKGSRRLEHFCRDFELQKVCYLPLNTFLLRPLHRLMHYKQVLERLCKHHPPNHADFRDCRAALAEITEMVAQLHGTMIKMENFQKLHELKKDLIGIDNLVIPGREFIRLGSLSKLSGKGLQQRMFFLFNDVLLYTSRGLTASNQFKVHGQLPLYGMTIEESEEEWGVPHCLTLRGQRQSIIVAASSRSEMEKWLEDIQMAIDLAEKSNGPTPELLASSPPDNKSPDEATAADQESEDDLSASRTSLERQAPHRGNTMVHVCWHRSTSVSMVDFSIAVENQLSGNLLRKFKNSNGWQKLWVVFTNFCLFFYKSHQDSHPLASLPLLGYSLTIPSESENIHKDYVFKLHFKSHVYYFRAESEYTFERWMEVIRSATSSASRAHSLSHKESHLY
As to B1, the binding entry with GST-MPP2-SH3GK (mouse) [2] is listed as “binds”.

B2: endogenous Arhgef2 from rat brain crude synaptosomes (protein, UniProt Q5FVC2 1-985)
chain: MSRIESLTRARIDRSKEQATKTREKEKMKEAKDARYTNGHLFTTISVSGMTMCYACNKSITAKEALICPTCNVTIHNRCKDTLANCTKVKQKQQKAALLRNNTALQSVSLRSKTTTRERPTSAIYPSDSFRQSLLGSRRGLSSLSLAKSVSTTNIAGHFNDESPLGLRQILSQSTDSLNMRNRTLSVESLIDEGVEVFYNELMSDFEMDEKDFEADSWSLAVDSSFLQQHKKEVMKKQDVIYELIQTELHHVRTLKIMTRLFRTGMLEELQMEPEVVQGLFPCVDELSDIHTRFLSQLLERRRQALCPGSTRNFVIHRLGDLLISQFSGSNAEQMRKTYSEFCSRHTKALKLYKELYARDKRFQQFIRKMTRSAVLKRHGVQECILLVTQRITKYPVLINRILQNSHGIEEEYQDLAAALGLVKELLSNVDQDVHELEKEARLQEIYNRMDPRAQTPVPGKGPFGRDELLRRKLIHDGCLLWKTATGRFKDVLLLLMTDVLVFLQEKDQKYIFTSLDKPSVVSLQNLIVRDIANQAKGMFLISSGPPEMYEVHAASRDDRTTWIRVIQQSVRLCPSREDFPLIETEDKAYLRRIKTKLQQKNQALVELLQMNVELFAEMVHFQALKAGFIGMPPPTLPRGLFRLESFESLRGERLLKDALREVEGLKDLLLGPCVDLPLTAREPALPVEADSGSCPGVTANGEARTFNGSIELCRADSDSSQKDRNGNQLRSPQEEALQPLVNLYGLLQGLQAVVVQQERLMEALFPEGPERWEKLSRANSRDGEAGRAAVASVTPEKQATELALLQRQHSLLQEELRRCQRLGEERATEAGSLEARLRESEQARALLEREAEEIRRQLAALGQNEPLPAEAPWARRPLDPRRRSLPAGDALYLSFNPPQPSRGHDRLDLPVTVRSLHRPFDDREAQELGSPEDRLQDSSDPDTCSEEEVSSRLSPPHSPRDFTRMQDIPEETESRDGEPTASES
Turning to B2, in the test with GST-MPP2-SH3GK (mouse) [2], the binding result is “binds”.
